US8829035B2, “Agent for treatment or prevention of diseases associated with activity of neurotrophic factors” (Sumitomo Chemical Company, Limited, priority 2009, dated 2014)
The name of at least one read-out is uncertain.

Test system: activity of 200 ng/mL of NGF (NXF promoter-driven luciferase in PC12 cells)
Assay: Luciferase reporter assay (NXF promoter) in PC12 cells: potentiation of NGF activity
Format: cell-based, rat
Procedure: The forward primer 5′-[…]-3′ and the reverse primer 5′-[…]-3′ were prepared as the PCR primers according to the sequence information for the NXF gene genome sequence (Accession Nos. AB054577 and NC—000085), and the PCR method was used to isolate from approximately 5 kbp upstream from the translated region of the NXF gene promoter portion to the vicinity of the transcription start site. For this, 1 μg of mouse genomic DNA (Takara) was used as the template, and the 2-step PCR reaction was carried out for 35 cycles, the conditions for which were 95° C./1 m in the denaturing step, and 68° C./8 m in the annealing and extension steps, to obtain the PCR product. The NXF promoter fragment was inserted into the SmaI site of the pGL3 Basic vector (Promega) in the upstream of luciferase gene to prepare a reporter plasmid that would express the luciferase enzyme driven by the NXF promoter.
PC12 cells (available from the ATCC) were cultured using RPMI medium (GIBCO-BRL) with 5% FCS (GIBCO-BR) and 15% horse serum (GIBCO-BRL) added, and 1 mM in sodium pyruvate (GIBCO-BRL), at 37° C. in the presence of 5% CO2. After transfection in 10^6 of these PC12 cells for 2 days with 12 μg of the above-described reporter plasmid and 1 μg of pRC/RSV vector (Invitrogen) using the Lipofectamine 2000 reagent (Invitrogen), the medium was exchanged for fresh medium containing 40 mg/L of geneticin sulfate (GIBCO), and this was cultured continuously. Culturing was continued for approximately 1 month with medium exchange of the cultured medium containing 40 mg/L of geneticin sulfate (GIBCO) every several days, with the result that multiple colonies of the obtained cells were picked up. Among these, one of the colonies that induced luciferase activity in the presence of 40 ng/mL of NGF (Wako Pure Chemicals) was selected and used for the cells to evaluate the activity of the compounds below.
These cells were set up in 96-well plates with 80% confluence, and the luciferase reporter assay was conducted using the Promega Steady Glo luciferase assay kit. The procedure was carried out overnight (approx. 16 hours) using culture medium containing the compound, and the Steady Glo substrate solution was added to the cells in half-diluted in PBS after removal of all remaining medium containing the compound. After this was allowed to stand for 30 minutes, the respective quantity of light produced was measured with a luminometer (Envision Perkin Elmer).
The activity of the compounds for evaluation was measured as the potentiation of the activity of 200 ng/mL of NGF. For the experiment control wells, the negative control well had medium containing only a final concentration of 0.1% DMSO, the positive control well had medium containing a saturation concentration of NGF. In addition, a test well was set up containing 0.1% DMSO with 200 ng/mL of NGF added corresponding to a 0 compound concentration. When its luciferase activity was taken as a standard, the relative luciferase activity could be calculated for the test wells to which the compound solution (dissolved in DMSO and prepared to have a final DMSO concentration of 0.1%) had been added in addition to the 200 ng/mL of NGF, to find the potentiation of the activity of 200 ng/mL of NGF due to that compound.

[1] = Test Example 1, relative luciferase activity vs 200 ng/mL NGF alone, overnight (approx. 16 hours)
[2] = Test Example 4, same manner as Test Example 1, relative luciferase activity vs 200 ng/mL NGF alone

`OCc1nc2cc(-c3nc4ccccc4s3)ccc2n1-c1ccccc1` [Ex. 2, 5-(benzothiazol-2-yl)-2-hydroxymethyl-1-phenylbenzimidazole] was tested, and the “Activity (potentiation of NGF activity)” value [1] was “+++ (Showed particularly strong potentiation (2-fold or greater potentiation of the activity of 200 ng/mL of NGF at 1 μM))”.
In the case of `CN(C)Cc1nc2cc(-c3nc4ccccc4s3)ccc2n1-c1ccccc1` [Ex. 3, 5-(benzothiazol-2-yl)-2-(N,N-dimethylamino)methyl-1-phenylbenzimidazole], the “Activity (potentiation of NGF activity)” value [1] is reported as “+++ (Showed particularly strong potentiation (2-fold or greater potentiation of the activity of 200 ng/mL of NGF at 1 μM))”.
`Cc1nc2cc(-c3nc4ccccc4s3)ccc2n1C1CCOCC1` [Ex. 4, 5-(benzothiazol-2-yl)-2-methyl-1-(tetrahydropyran-4-yl)benzimidazole] was tested, and the “Activity (potentiation of NGF activity)” value [1] was “+++ (Showed particularly strong potentiation (2-fold or greater potentiation of the activity of 200 ng/mL of NGF at 1 μM))”.
In the case of `CC(=O)OCc1nc2cc(-c3nc4ccccc4s3)ccc2n1C1CCOCC1` [Ex. 7, 2-acetoxymethyl-5-(benzothiazol-2-yl)-1-(tetrahydropyran-4-yl)benzimidazole], the “Activity (potentiation of NGF activity)” value [1] is reported as “+++ (Showed particularly strong potentiation (2-fold or greater potentiation of the activity of 200 ng/mL of NGF at 1 μM))”.
With `OCc1nc2cc(-c3nc4ccccc4s3)ccc2n1C1CCOCC1` [Ex. 8, 5-(benzothiazol-2-yl)-2-hydroxymethyl-1-(tetrahydropyran-4-yl)benzimidazole] the “Activity (potentiation of NGF activity)” value [1] was “+++ (Showed particularly strong potentiation (2-fold or greater potentiation of the activity of 200 ng/mL of NGF at 1 μM))”.
For `Cc1nc2cc(-c3nc4ccccc4o3)ccc2n1C1CCOCC1` [Ex. 12, 5-(benzoxazol-2-yl)-2-methyl-1-(tetrahydropyran-4-yl)benzimidazole methanesulfonate], the “Activity (potentiation of NGF activity)” value (Test Example 1, relative luciferase activity vs 200 ng/mL NGF alone, overnight (approx. 16 hours), methanesulfonate) was “+++ (Showed particularly strong potentiation (2-fold or greater potentiation of the activity of 200 ng/mL of NGF at 1 μM))”.
For `Cc1nc2cc(-c3cc4ccccc4s3)ccc2n1C1CCOCC1` [Ex. 18, 5-(benzothiophen-2-yl)-2-methyl-1-(tetrahydropyran-4-yl)benzimidazole], the “Activity (potentiation of NGF activity)” value [1] was “+++ (Showed particularly strong potentiation (2-fold or greater potentiation of the activity of 200 ng/mL of NGF at 1 μM))”.
For `c1ccc2oc(-c3ccc4c(c3)ncn4C3CCOCC3)nc2c1` [Ex. 20, 5-(benzoxazol-2-yl)-1-(tetrahydropyran-4-yl)benzimidazole], the “Activity (potentiation of NGF activity)” value [1] was “+++ (Showed particularly strong potentiation (2-fold or greater potentiation of the activity of 200 ng/mL of NGF at 1 μM))”.
With `CC(C)c1nc2cc(-c3nc4ccccc4o3)ccc2n1C1CCOCC1` [Ex. 22, 5-(benzoxazol-2-yl)-2-isopropyl-1-(tetrahydropyran-4-yl)benzimidazole] the “Activity (potentiation of NGF activity)” value [1] was “+++ (Showed particularly strong potentiation (2-fold or greater potentiation of the activity of 200 ng/mL of NGF at 1 μM))”.
With `c1ccc2oc(-c3ccc4c(c3)nnn4C3CCOCC3)nc2c1` [Ex. 28, 5-(benzoxazol-2-yl)-1-(tetrahydropyran-4-yl)benzotriazole] the “Activity (potentiation of NGF activity)” value [1] was “+++ (Showed particularly strong potentiation (2-fold or greater potentiation of the activity of 200 ng/mL of NGF at 1 μM))”.
`Cc1nc2cc(-c3nc4ccccc4o3)ccc2n1-c1ccc(F)cc1` [Ex. 34, 5-(benzoxazol-2-yl)-1-(4-fluorophenyl)-2-methylbenzimidazole] was tested, and the “Activity (potentiation of NGF activity)” value [1] was “+++ (Showed particularly strong potentiation (2-fold or greater potentiation of the activity of 200 ng/mL of NGF at 1 μM))”.
For `Cc1nc2cc(-c3nc4ccccc4o3)ccc2n1C12CC3CC(CC(C3)C1)C2` [Ex. 36, 1-adamantyl-5-(benzoxazol-2-yl)-2-methylbenzimidazole], the “Activity (potentiation of NGF activity)” value [1] was “+++ (Showed particularly strong potentiation (2-fold or greater potentiation of the activity of 200 ng/mL of NGF at 1 μM))”.
In the case of `Cc1ccc2oc(-c3ccc4c(c3)nc(C)n4C3CCOCC3)nc2c1` [Ex. 39, 5-(5-methylbenzoxazol-2-yl)-2-methyl-1-(tetrahydropyran-4-yl)benzimidazole], the “Activity (potentiation of NGF activity)” value [1] is reported as “+++ (Showed particularly strong potentiation (2-fold or greater potentiation of the activity of 200 ng/mL of NGF at 1 μM))”.
For `Cc1nc2cc(-c3nc4cc(Cl)ccc4o3)ccc2n1C1CCOCC1` [Ex. 40, 5-(5-chlorobenzoxazol-2-yl)-2-methyl-1-(tetrahydropyran-4-yl)benzimidazole], the “Activity (potentiation of NGF activity)” value [1] was “+++ (Showed particularly strong potentiation (2-fold or greater potentiation of the activity of 200 ng/mL of NGF at 1 μM))”.
`Cc1nc2cc(-c3nc4ccc(Cl)cc4o3)ccc2n1C1CCOCC1` [Ex. 41, 5-(6-chlorobenzoxazol-2-yl)-2-methyl-1-(tetrahydropyran-4-yl)benzimidazole] was tested, and the “Activity (potentiation of NGF activity)” value [1] was “+++ (Showed particularly strong potentiation (2-fold or greater potentiation of the activity of 200 ng/mL of NGF at 1 μM))”.
For `Cc1ccc2nc(-c3ccc4c(c3)nc(C)n4C3CCOCC3)oc2c1` [Ex. 42, 5-(6-methylbenzoxazol-2-yl)-2-methyl-1-(tetrahydropyran-4-yl)benzimidazole], the “Activity (potentiation of NGF activity)” value [1] was “+++ (Showed particularly strong potentiation (2-fold or greater potentiation of the activity of 200 ng/mL of NGF at 1 μM))”.
In the case of `CCc1nc2cc(-c3nc4ccccc4o3)ccc2n1C1CCOCC1` [Ex. 43, 5-(benzoxazol-2-yl)-2-ethyl-1-(tetrahydropyran-4-yl)benzimidazole], the “Activity (potentiation of NGF activity)” value [1] is reported as “+++ (Showed particularly strong potentiation (2-fold or greater potentiation of the activity of 200 ng/mL of NGF at 1 μM))”.
In the case of `CCCn1c(C)nc2cc(-c3nc4ccccc4o3)ccc21` [Ex. 50, 5-(benzoxazol-2-yl)-2-methyl-1-n-propylbenzimidazole], the “Activity (potentiation of NGF activity)” value [2] is reported as “+++ (Showed particularly strong potentiation (2-fold or greater potentiation of the activity of 200 ng/mL of NGF at 1 μM))”.
For `COCCn1c(C)nc2cc(-c3nc4ccccc4o3)ccc21` [Ex. 51, 5-(benzoxazol-2-yl)-1-(2-methoxyethyl)-2-methylbenzimidazole], the “Activity (potentiation of NGF activity)” value [2] was “+++ (Showed particularly strong potentiation (2-fold or greater potentiation of the activity of 200 ng/mL of NGF at 1 μM))”.
For `Cc1nc2cc(-c3nc4ccccc4o3)ccc2n1CC1CC1` [Ex. 54, 5-(benzoxazol-2-yl)-2-methyl-1-cyclopropylmethylbenzimidazole], the “Activity (potentiation of NGF activity)” value [2] was “+++ (Showed particularly strong potentiation (2-fold or greater potentiation of the activity of 200 ng/mL of NGF at 1 μM))”.
With `Cc1nc2cc(-c3nc4ccccc4o3)ccc2n1CCCc1ccccc1` [Ex. 57, 5-(benzoxazol-2-yl)-2-methyl-1-(3-phenylpropyl)benzimidazole] the “Activity (potentiation of NGF activity)” value [2] was “+++ (Showed particularly strong potentiation (2-fold or greater potentiation of the activity of 200 ng/mL of NGF at 1 μM))”.
With `Cc1nc2cc(-c3nc4cc(C(C)(C)C)ccc4o3)ccc2n1C1CCOCC1` [Ex. 59, 5-(5-tert-butylbenzoxazol-2-yl)-2-methyl-1-(tetrahydropyran-4-yl)benzimidazole] the “Activity (potentiation of NGF activity)” value [2] was “+++ (Showed particularly strong potentiation (2-fold or greater potentiation of the activity of 200 ng/mL of NGF at 1 μM))”.
With `c1coc(-c2nc3cc(-c4nc5ccccc5o4)ccc3n2C2CCOCC2)c1` [Ex. 63, 5-(benzoxazol-2-yl)-2-(furan-2-yl)-1-(tetrahydropyran-4-yl)benzimidazole] the “Activity (potentiation of NGF activity)” value [2] was “+++ (Showed particularly strong potentiation (2-fold or greater potentiation of the activity of 200 ng/mL of NGF at 1 μM))”.
